Publication PMC5713202
Results are given in words; binding and its absence hold for the method and conditions named. In cells and extracts the contact can be indirect. Some entries that bind do so weakly or less than the wild type.

Protein sequences, listed by entry. Tags and fused reporters are not part of them.
UniProt P40337: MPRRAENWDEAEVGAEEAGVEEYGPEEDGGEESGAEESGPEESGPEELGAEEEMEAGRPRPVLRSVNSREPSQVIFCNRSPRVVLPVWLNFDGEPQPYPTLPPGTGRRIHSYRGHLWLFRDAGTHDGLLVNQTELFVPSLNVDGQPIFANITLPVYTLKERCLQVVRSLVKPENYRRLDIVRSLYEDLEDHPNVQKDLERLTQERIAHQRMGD
UniProt P26678: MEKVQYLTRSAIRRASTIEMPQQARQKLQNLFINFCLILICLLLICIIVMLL

Molecular target: von Hippel–Lindau (VHL) protein (pVHL), HEK293 cells (human (endogenous in HEK293)) (UniProt P40337)
Experiment: co-IP; lysates of PLN-transfected HEK293 cells, 4 h after 20 μM CCCP with or without 5 mM NAC; pVHL pull-down fractions on SureBeads Protein G Magnetic Beads; Western blot with anti-PLN antibody

Substance: phospholamban (PLN), transfected in HEK293 cells (from UniProt P26678 1-52)
- binding: binds
